Results published in patent publication US9938331.
No constants are given. Whether binding was seen depends on the method and setting. Some binding calls cover weakened binding; strength is not graded here.

Amino acid sequences for entries named in this document (tags omitted). A change or cut given only in a name is not applied to a line headed by its entry. Chains listed by the source or under a name are the forms on record and can include a tag or linker.
human VEGF (P15692, form named): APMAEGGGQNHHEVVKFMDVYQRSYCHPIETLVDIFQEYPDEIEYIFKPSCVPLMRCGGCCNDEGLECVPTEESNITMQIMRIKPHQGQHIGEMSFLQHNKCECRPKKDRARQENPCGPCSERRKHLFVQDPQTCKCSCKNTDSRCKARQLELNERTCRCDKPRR

Target: human VEGF (human) (UniProt P15692)
Test: phage ELISA on coated antigen after panning of 1SS libraries

binding, binds:
LANCPNSPGFLCLHAV [sNG0026S3.024], VHTFCNPFRQMCSLPM [sNG0026S3.027], NPFFYCVAGKCVDAPL [sNG0026S3.029], GTPRCNPFRQFCAIPS [sNG0026S3.032], APFFSCSFGFCRDLQT [sNG0026S3.035], ASSCKDSPHFRCLFPL [sNG0026S3.055], LYFQCFPNRGCSTLQP [sNG0026S3.002], ISTFFCSNGSCVDVPA [sNG0026S3.006], GRSVCNPYKSWCPVRQ [sNG0026S3.011], RMVNCNPFNSWCSLPS [sNG0026S3.001], DMRFLCRHGKCHDLPL [sNG0026S3.034], WECTQHWCPS [sNG0025S3.021], TSPACNPFRHFCTLPT [sNG0026S3.058], LCLPLGRWCP [sNG0025S3.016], SKPTCNVFNSWCSVPL [sNG0026S3.059], PPFFVCSLGKCRDAHL [sNG0026S3.043], QPPICNPFRQLCGIPL [sNG0026S3.046], PSFFCSPLLGCRDSLS [sNG0026S3.052], SKHMCNPFHSWCGVPL [sNG0026S3.047], NVHFWCHNHKCHDLVS [sNG0026S3.040], PPQFQCVRGKCFDLTF [sNG0026S3.053], TPYFRCQFGFCFDSFS [sNG0026S3.045], LFFKCDVGHGCYDIKH [sNG0026S3.038], RPPACNLFLSWCSYDS [sNG0026S3.004], PPHFRCFNGSCVDLSR [sNG0026S3.051], RWPVCNPFLGYCGIPN [sNG0026S3.056]
